Source: PubChem BioAssay AID1671190 (National Center for Advancing Translational Sciences (NCATS), 2021)
Out of some 580,000 compounds screened, about 6,100 (1.1%) were called active. The shares of active, inactive and inconclusive entries below differ from those in the screen. The call rests on the fitted dose curve; in most records, active means well fitted inhibition curve with a large enough effect; inconclusive means small, poorly fitted or top-dose-only effect, or another doubt; inactive means no such curve, though single readings can be large or run the other way. Potencies of inconclusive entries are doubtful fits and often do not repeat.

Sequences of proteins named here, by UniProt entry; tags and fusion partners are left off. A change or cut given only in a name is not applied to a line headed by its entry.
UniProt P18054: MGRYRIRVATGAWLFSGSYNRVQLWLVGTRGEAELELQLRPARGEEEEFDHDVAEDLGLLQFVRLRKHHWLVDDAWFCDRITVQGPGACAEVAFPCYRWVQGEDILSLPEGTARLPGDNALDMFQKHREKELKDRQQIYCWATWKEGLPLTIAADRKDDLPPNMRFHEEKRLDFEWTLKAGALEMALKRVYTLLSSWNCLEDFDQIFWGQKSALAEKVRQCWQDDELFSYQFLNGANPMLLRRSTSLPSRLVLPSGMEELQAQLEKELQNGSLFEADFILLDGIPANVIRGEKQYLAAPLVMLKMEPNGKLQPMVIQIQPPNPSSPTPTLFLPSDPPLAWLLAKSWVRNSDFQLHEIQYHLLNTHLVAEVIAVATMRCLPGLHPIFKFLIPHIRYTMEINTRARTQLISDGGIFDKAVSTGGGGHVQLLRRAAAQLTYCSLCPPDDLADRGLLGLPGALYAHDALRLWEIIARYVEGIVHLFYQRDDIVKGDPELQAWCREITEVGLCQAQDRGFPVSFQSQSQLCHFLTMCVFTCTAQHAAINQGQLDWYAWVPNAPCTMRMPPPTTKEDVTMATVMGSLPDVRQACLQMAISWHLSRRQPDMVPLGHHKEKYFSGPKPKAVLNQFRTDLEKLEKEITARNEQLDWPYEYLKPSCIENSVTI

Biological target: Polyunsaturated fatty acid lipoxygenase ALOX12 (Homo sapiens) (UniProt P18054)
Test: Primary qHTS assay for inhibitors of human arachidonate 12S-lipoxygenase (ALOX12): Round 2
Details: purified 12hLO, xylenol orange hydroperoxide absorbance; series mostly up to 108 µM
How it was run: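 Purified human 12hLO (150 nM final) in 25 mM Hepes, 0.01% Triton X-100, pH 7.0 was preincubated 15 min at room temperature with compound. Then 40 uM arachidonic acid was added, 30 min. Hydroperoxide was read by Fe-XO absorbance ratio 573/405 nm.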
Potency means the concentration at half of the fitted maximal effect.

SMILES	Potency
Cc1ccc(NS(=O)(=O)c2ccc(NC(C)c3ccc(C)o3)c([N+](=O)[O-])c2)c(C)c1 (stereo not given)	inconclusive: 39.8 µM [inhibitor, partial curve, poor fit]
CCC(=O)N1CCN(C2CCN(CCOC)C2=O)CC1 (stereo not given)	inconclusive: 5.01 µM [inhibitor, full curve]
Cn1c(Oc2ccc(F)cc2)c(C#N)c(=O)n(C)c1=O	inconclusive: 25.1 µM [inhibitor, single point]
N#CC(=C1C=C(Br)C(=NO)C=C1Cl)c1cccc2ccccc12	inconclusive: 35.5 µM [inhibitor, partial curve, poor fit]
COc1cc(NC(=O)N2CC3CCCN3c3ccccc32)cc(OC)c1OC (stereo not given)	inconclusive: 44.7 µM [inhibitor, partial curve, poor fit]
COc1cc2c(cc1OC)C1=CC3(C(=O)Nc4ccc(C)cc43)C(C#N)=C(N)N1CC2 (stereo not given)	inconclusive: 10 µM [inhibitor, partial curve, poor fit]
CCOc1ccccc1N(CC(=O)NCC1CCCO1)C(=O)CCC(=O)Nc1cc(C)on1 (stereo not given)	inactive
COc1ccc(-c2ccc(CCC(=O)NC3CCCCC3)o2)cc1	inconclusive: 7.94 µM [inhibitor, full curve]
O=C(NC1CCCCCC1)c1c2c(nc3ccccc13)CCN(Cc1ccccc1)C2	inactive
CC(=O)N1CCN(c2ccc(NC(=O)COc3ccc(C)cc3)cc2Cl)CC1	inactive
Cn1c(=O)n(C)c2cc(NS(=O)(=O)c3ccc(C(C)(C)C)cc3)ccc21	inconclusive: 79.4 µM [inhibitor, partial curve, poor fit]
S=c1[nH]nc(NCCc2ccccc2)s1	inconclusive: 14.1 µM [inhibitor, partial curve, poor fit]
OCCN1CCN(CC(O)COc2ccc(C34CC5CC(CC(C5)C3)C4)cc2)CC1 (stereo not given)	inconclusive: 35.5 µM [inhibitor, full curve, poor fit]
CCOC(=O)Cn1c(=O)n(-c2ccccc2OC)c2nc(-c3ccccc3)nc(C(N)=O)c21	inconclusive: 0.708 µM [inhibitor, full curve, poor fit]
CCc1ccc(CNC(=O)c2ccc(CS(=O)c3ccc(Br)cc3)o2)cc1 (stereo not given)	inconclusive: 100 µM [inhibitor, partial curve, poor fit]
COc1cc([N+](=O)[O-])cc(/C=N/NC(=O)c2ccc(NC(=O)c3ccc(C)cc3)cc2)c1O	inactive
COc1ccc(NC2=C(NC(C)=O)C(=O)c3ccccc3C2=O)cc1	inactive
COc1ccc(C2=CC(c3ccccc3Cl)n3nc(-c4ccc(C)cc4)nc3N2)cc1 (stereo not given)	inconclusive: 31.6 µM [inhibitor, partial curve, poor fit]
CC(C)C(=O)N(c1cc2sc(=O)oc2c2ccccc12)S(=O)(=O)c1cccs1	inconclusive: 6.31 µM [inhibitor, full curve]
O=C(CCc1nc(-c2ccncc2)no1)NCc1cccnc1-n1cncn1	inactive
CCCN1CCN(c2ccc(C(=O)O)cc2NS(=O)(=O)c2ccccc2)CC1	inconclusive: 4.47 µM [inhibitor, full curve]
COc1ccc(N2C(=O)[C@@H]3[C@H](C2=O)[C@H](C(C)=O)N2c4ccccc4C=C[C@@H]32)cc1	inconclusive: 50.1 µM [inhibitor, partial curve, poor fit]

Some values from the results shown:
Value for OCCN1CCN(CC(O)COc2ccc(C34CC5CC(CC(C5)C3)C4)cc2)CC1 (stereo not given) under Potency: inconclusive: 35.5 µM [inhibitor, full curve, poor fit]
Value for Cc1ccc(NS(=O)(=O)c2ccc(NC(C)c3ccc(C)o3)c([N+](=O)[O-])c2)c(C)c1 (stereo not given) under Potency: inconclusive: 39.8 µM [inhibitor, partial curve, poor fit]

Following part:

SMILES	Potency
O=C(COC(=O)c1ccc(O)cc1)Nc1ccc(S(=O)(=O)N2CCOCC2)cc1	inactive
CC(C)C#Cc1ccc2c(c1)O[C@@H](CN(C)C(=O)c1cnccn1)[C@@H](C)CN([C@@H](C)CO)S2(=O)=O	inconclusive: 28.2 µM [inhibitor, partial curve, poor fit]
O=C(O)c1ccccc1C(=O)Nc1n[nH]c(=S)s1	inconclusive: 31.6 µM [inhibitor, partial curve]
COC(=O)COc1ccc2c(c1)OCC2=O	inconclusive: 0.398 µM [inhibitor, full curve, poor fit]
Cc1ccc(S(=O)(=O)c2cccc(S(=O)(=O)N3CCOCC3)c2)cc1S(=O)(=O)N1CCOCC1	inactive
COCCNC(=O)C(C)(C)Oc1nn(Cc2cccc(Cl)c2)c2ccccc12	inconclusive: 112 µM [inhibitor, partial curve, poor fit]
CCC(=O)Nc1ccc2c(c1)OC[C@@H](C)N(Cc1cccc(F)c1)C[C@@H](C)[C@@H](OC)CN(C)C2=O	inconclusive: 44.7 µM [inhibitor, partial curve, poor fit]
O=C(C[C@H]1C(=O)N(Cc2ccccc2)C[C@@H]1Cc1ccccc1)Nc1ccc(Br)cc1	inactive
CCn1c(N2CCN(S(=O)(=O)c3ccccc3C(F)(F)F)CC2)nc2ccccc21	inconclusive: 35.5 µM [inhibitor, partial curve, poor fit]
COCCNc1cc(-c2ccccc2C(F)(F)F)ncn1	inconclusive: 39.8 µM [inhibitor, partial curve, poor fit]
CCc1nc(Nc2ccccc2OC)c2oc3ccccc3c2n1	inconclusive: 39.8 µM [inhibitor, partial curve, poor fit]
O=C(COc1ccc([N+](=O)[O-])cc1)Nc1ccc(N2CCN(C(=O)c3ccco3)CC2)cc1	inactive
COCCN(Cc1ccc(F)cc1)Cc1cc(=O)n2c3c(sc2n1)CCCC3	inactive
Cc1cccc(Cn2c(Sc3nncn3C)nc3c2c(=O)[nH]c(=O)n3C)c1	inactive
Cc1c(CCOC(=O)CC23CC4CC(CC(C4)C2)C3)sc[n+]1CC(=O)c1ccccc1	inconclusive: 79.4 µM [inhibitor, partial curve, poor fit]
NC(=O)CC(NC(=O)Cc1ccc(Br)cc1)c1ccc(NCc2ccccn2)c([N+](=O)[O-])c1 (stereo not given)	inconclusive: 79.4 µM [inhibitor, partial curve, poor fit]
COc1cccc(NS(=O)(=O)c2ccc3[nH]c4c(c3c2)CCCCCC4)c1	inactive
COc1ccc(OC)c(/C=C2\SC(N3CCCC(C)C3)=NC2=O)c1 (stereo not given)	inconclusive: 141 µM [inhibitor, partial curve, poor fit]
COc1ccc(-c2nn3c(CN4CCOCC4)nnc3s2)c(OC)c1	inconclusive: 141 µM [inhibitor, single point]
CCc1ccc(CN(C(=O)c2ccc(OC)cc2)C2CCS(=O)(=O)C2)cc1 (stereo not given)	inconclusive: 112 µM [inhibitor, partial curve, poor fit]
C#CCSc1nc(-c2cccs2)ccc1C#N	inactive
CCOC(=O)c1ccc(NC(=O)CC2Nc3cccc4cccc(c34)NC2=O)cc1 (stereo not given)	inconclusive: 100 µM [inhibitor, partial curve, poor fit]

SMILES	Potency
CCOc1ccccc1NC(=O)c1csc(C)c1C	inconclusive: 44.7 µM [inhibitor, partial curve, poor fit]
COc1ccc(-c2onc(C)c2C)cc1S(=O)(=O)N1CCc2ccccc21	inactive
O=C(O)COn1c(-c2ccccc2)nc2ccc([N+](=O)[O-])cc21	inconclusive: 44.7 µM [inhibitor, partial curve, poor fit]
CC(C)c1ccc(C(=O)Nc2ccc(-c3nn4cnnc4s3)cc2)cc1	inactive
Cc1ccccc1Cn1cc(NC(=O)c2cc(C(C)C)on2)cn1	inactive
O=C(CCl)N1c2ccccc2CCc2ccccc21	inconclusive: 11.2 µM [inhibitor, full curve]
Cc1ccc2c(CN3CCN(c4ccccn4)CC3)cc(=O)oc2c1C	inconclusive: 50.1 µM [inhibitor, single point]
Cc1ccc(Nc2ccc3nonc3c2[N+](=O)[O-])cc1Cl	inconclusive: 7.08 µM [inhibitor, full curve, poor fit]
S=C(NCc1ccccc1)NN=C(Cc1ccccc1)Cc1ccccc1	inconclusive: 44.7 µM [inhibitor, partial curve, poor fit]
Cc1ccc(C(=O)C(C)OC(=O)C23CC4CC(CC(O)(C4)C2)C3)cc1 (stereo not given)	inactive
COc1cc(C(=O)/C=C/c2ccc(SC)cc2)ccc1O	active: 39.8 µM
CC(C)(C)NC(=O)C(c1ccccc1)n1c(=O)c(-c2ccco2)nc2ccccc21 (stereo not given)	inconclusive: 44.7 µM [inhibitor, partial curve, poor fit]
CCOC(=O)c1[nH]c2ccccc2c1NC(=S)Nc1cc(C)ccc1C	inconclusive: 44.7 µM [inhibitor, partial curve, poor fit]
CCSc1nc(N)c(C#N)c(-c2ccco2)c1C#N	inactive
O=C(O)C1Sc2[nH]c(=O)sc2C2c3ccc(O)cc3OC(=O)C12 (stereo not given)	inconclusive: 50.1 µM [inhibitor, partial curve]
COc1ccc(C(=O)N2CCCCCCN(C)C(=O)[C@@H]3CCC[C@@H]32)cc1F	inactive
COc1ccc(C(=O)Nc2ccc(N3CCN(c4ccccc4)CC3)c(C(=O)O)c2)cc1	inactive
CC(=O)Oc1cc(C)c(Cl)c2c(OC(C)=O)cc(C(C)=O)c(O)c12	inconclusive: 15.8 µM [inhibitor, partial curve, poor fit]
COc1ccc(-c2nc3sc(CCNC(=O)Cc4ccc(Cl)cc4)c(C)n3n2)cc1	inconclusive: 112 µM [inhibitor, partial curve, poor fit]
C=CC[N+](CC)(CC)CC#Cc1ccc(C)cc1	inactive
Cc1cccc(NC(=O)COc2ccc(/C=C\c3[nH]c(=O)[nH]c(=O)c3[N+](=O)[O-])cc2)c1	active: 39.8 µM
